Measured values: publication doi:10.1101/2023.03.28.534615
No constants are given. Whether binding was seen depends on the method and setting. Some entries that bind do so weakly or less than the wild type. Where a sequence is shown, tags or fusion partners need not be part of it.

Sequences of proteins named here, by UniProt entry; tags and fusion partners are left off. A change or cut given only in a name is not applied to a line headed by its entry. A line that says so, or that is headed by a name, gives the form on record, which may keep a tag or linker. Residues count along the entry.
UniProt Q9P7T4: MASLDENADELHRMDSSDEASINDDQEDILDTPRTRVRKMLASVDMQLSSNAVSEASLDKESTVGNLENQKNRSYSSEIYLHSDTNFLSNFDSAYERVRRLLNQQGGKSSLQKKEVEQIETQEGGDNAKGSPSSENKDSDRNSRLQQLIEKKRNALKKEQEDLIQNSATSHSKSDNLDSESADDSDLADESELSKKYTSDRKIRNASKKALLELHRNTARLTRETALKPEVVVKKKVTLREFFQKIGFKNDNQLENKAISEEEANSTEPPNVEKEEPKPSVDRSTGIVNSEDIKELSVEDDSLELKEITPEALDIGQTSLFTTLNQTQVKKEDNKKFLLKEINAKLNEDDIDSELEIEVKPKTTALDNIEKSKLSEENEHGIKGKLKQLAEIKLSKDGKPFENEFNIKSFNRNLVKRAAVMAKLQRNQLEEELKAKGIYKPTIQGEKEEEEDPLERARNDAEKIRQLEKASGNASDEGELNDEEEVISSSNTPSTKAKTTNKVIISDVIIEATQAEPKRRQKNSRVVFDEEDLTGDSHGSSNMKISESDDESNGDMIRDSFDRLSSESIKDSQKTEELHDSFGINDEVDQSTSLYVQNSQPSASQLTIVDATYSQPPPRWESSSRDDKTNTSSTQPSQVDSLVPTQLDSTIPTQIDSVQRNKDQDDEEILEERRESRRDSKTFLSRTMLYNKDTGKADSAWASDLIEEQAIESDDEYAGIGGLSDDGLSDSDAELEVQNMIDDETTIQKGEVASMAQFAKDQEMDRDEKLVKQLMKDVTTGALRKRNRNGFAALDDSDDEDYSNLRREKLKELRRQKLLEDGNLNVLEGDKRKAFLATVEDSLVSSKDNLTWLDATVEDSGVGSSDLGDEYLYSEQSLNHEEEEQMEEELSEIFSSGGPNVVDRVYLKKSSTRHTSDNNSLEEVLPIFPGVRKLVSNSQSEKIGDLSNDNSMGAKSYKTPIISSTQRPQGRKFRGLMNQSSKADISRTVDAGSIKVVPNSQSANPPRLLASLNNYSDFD
Mrc1-M (248-756 a.a., middle region) fused to the Gal4 DNA-binding domain: residues 248-756 of Q9P7T4
Mrc1-C (500-1019 a.a., C-terminal region) fused to the Gal4 DNA-binding domain: residues 500-1019 of Q9P7T4

How the values were obtained:
Assay in all cases: two-hybrid
[1] = biological target: Full-length Mrc1 (Mrc1-F) fused to the Gal4 DNA-binding domain (S. pombe) (UniProt Q9P7T4)
[2] = biological target: Mrc1-M (248-756 a.a., middle region) fused to the Gal4 DNA-binding domain (S. pombe) (UniProt Q9P7T4)
[3] = biological target: Mrc1-C (500-1019 a.a., C-terminal region) fused to the Gal4 DNA-binding domain (S. pombe) (UniProt Q9P7T4)

binding [1]: binds | binding [2]: no binding | binding [3]: binds
B1: Full-length Clr3 fused to the Gal4 activation domain (protein, UniProt P56523 1-687)
chain: MLASNSDGASTSVKPSDDAVNTVTPWSILLTNNKPMSGSENTLNNESHEMSQILKKSGLCYDPRMRFHATLSEVDDHPEDPRRVLRVFEAIKKAGYVSNVPSPSDVFLRIPAREATLEELLQVHSQEMYDRVTNTEKMSHEDLANLEKISDSLYYNNESAFCARLACGSAIETCTAVVTGQVKNAFAVVRPPGHHAEPHKPGGFCLFNNVSVTARSMLQRFPDKIKRVLIVDWDIHHGNGTQMAFYDDPNVLYVSLHRYENGRFYPGTNYGCAENCGEGPGLGRTVNIPWSCAGMGDGDYIYAFQRVVMPVAYEFDPDLVIVSCGFDAAAGDHIGQFLLTPAAYAHMTQMLMGLADGKVFISLEGGYNLDSISTSALAVAQSLLGIPPGRLHTTYACPQAVATINHVTKIQSQYWRCMRPKHFDANPKDAHVDRLHDVIRTYQAKKLFEDWKITNMPILRDSVSNVFNNQVLCSSNFFQKDNLLVIVHESPRVLGNGTSETNVLNLNDSLLVDPVSLYVEWAMQQDWGLIDINIPEVVTDGENAPVDILSEVKELCLYVWDNYVELSISKNIFFIGGGKAVHGLVNLASSRNVSDRVKCMVNFLGTEPLVGLKTASEEDLPTWYYRHSLVFVSSSNECWKKAKRAKRRYGRLMQSEHTETSDMMEQHYRAVTQYLLHLLQKARPTSQ
